Consider 61 compounds from PubChem BioAssay AID493014 (National Center for Advancing Translational Sciences (NCATS), 2011).

This is one part of the list. Shown are side measurements of this screen, not its main read-out; they come without a call. The list favours compounds with an active or inconclusive main result. The note in brackets gives the kind of curve behind each potency; many fits are weak.

The nature of this assay: qHTS Assay to Find Inhibitors of Chronic Active B-Cell Receptor Signaling. The conditions noted are these: ABC-DLBCL IkBa-CBG/CBR reporter, luminescence ratio (green luciferase fused to IkBa over red control in TMD8 lymphoma cells), 4 h. In short, it runs like this:
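Concentration-response series (up to 46 uM) were applied to TMD8 dual-reporter cells for 4 h at 37C with doxycycline. Green/red ratio, after filter-overlap correction, defined %Activity; red signal alone was normalised to basal cells and zero luminescence.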
(In qHTS, concentration-response curves come from the screen itself.)

Setting [1] is: measured here: CBR red luminescence, cell number.
[2] abbreviates: measured here: IkBa-CBG green luminescence.

On to `N/C(=N\OC(=O)CCC1CCCC1)c1ccc(Cl)cc1`, for which the AC50 (in general, the concentration at which the activity in the assay is half-maximal) under setting [1] was 2.82 µM [rising, partial curve, poor fit].

As to `COC(=O)c1ccc(CN(c2ccc(C(=O)O)c(O)c2)S(=O)(=O)c2ccc(Cl)c([N+](=O)[O-])c2)cc1`, the concentration at half-maximal activity (AC50) runs as follows: under setting [1], 12.6 µM [falling, partial curve]; under setting [2], 15.8 µM [rising, single point].

For `C=CCN(c1ccccc1OC)S(=O)(=O)c1cccc(C(=O)Nc2nnc(C3CC3)s2)c1`, the AC50 under setting [1] is 10.3 µM [falling, partial curve].

Take `O=C(N/N=C/C=C\c1ccco1)c1cccnc1`: the AC50 under setting [1] is 10 µM [falling, partial curve].

Consider `Cc1ccnc(NC(=O)c2cccc(S(=O)(=O)Nc3ccc(C)cc3C)c2)c1`, for which the AC50 reads like this: under setting [1], 29.1 µM [rising, single point]; under setting [2], 16.4 µM [falling, partial curve, poor fit].

Consider `CN(Cc1c(F)cccc1Cl)C(=O)C1CC(=O)N(CCc2ccccc2)C1` (stereo not drawn), for which, under setting [1], the AC50 is 11.2 µM [rising, partial curve, poor fit].

Regarding `Cc1cc(C)c(C)c(S(=O)(=O)N2CCN(C(=S)NCC3CCCO3)CC2)c1C` (stereo not drawn), the AC50 under setting [1] is 0.891 µM [rising, partial curve, poor fit].

Turning to `CCc1cc(-c2[nH]ncc2-c2nc3ccccc3n2C)c(O)cc1O`, under setting [1], the AC50 was 15.8 µM [falling, partial curve, poor fit].

For `CCCn1c(Nc2nc3ccccc3n2C)nc2ccccc21`, the AC50 by setting is: under setting [1], 28.2 µM [falling, single point]; under setting [2], 25.1 µM [falling, partial curve, poor fit].

With `CCS(=O)(=O)Nc1ccc(-c2nc3cccnc3s2)cc1`, the AC50 under setting [1] was 11.2 µM [falling, single point].

Turning to `Cc1ccc(NC(=O)CSCC(=O)N2c3ccccc3CCc3ccccc32)cc1`, the AC50 under setting [1] is 17.8 µM [falling, single point].

For `Cc1ccc(N2CCN(C(=O)NC3CCCCC3)CC2C)cc1` (stereo not drawn), the AC50 under setting [1] is 6.31 µM [rising, single point].

Turning to `O=S(=O)(c1cccc2cccnc12)N1CCN(c2ccccc2)CC1`, the AC50 under setting [1] was 0.116 µM [falling, full curve, poor fit].

Turning to `C=C1N(CCCCCC(=O)O)C(=O)OC12CCCCC2`, under setting [1], the AC50 is 1.46 µM [rising, full curve, poor fit].

In the case of `O=c1cc2c(nn1Cc1cccc([N+](=O)[O-])c1)-c1ccccc1CC2`, under setting [1], the AC50 is 35.5 µM [falling, single point].

`CCc1cc(=O)oc2cc(OC(C)=O)cc(OC(C)=O)c12`: the AC50 under setting [1] is 7.94 µM [falling, partial curve].

As for `CC(C)(C)c1ccc(-c2noc(CCC(N)=O)n2)cc1`, the AC50 under setting [1] was 20 µM [falling, partial curve, poor fit].

As to `CCCOc1ccc(N2C(=O)CC(NCc3ccncc3)C2=O)cc1` (stereo not drawn), the AC50 under setting [1] is 10 µM [rising, partial curve, poor fit].

On to `COc1ccccc1-c1nnc2sc(COc3ccc(F)cc3)nn12`, for which, under setting [1], the AC50 is 3.55 µM [falling, full curve, poor fit].

Take `CCOC(=O)C1CCN(C(=O)C2c3ccccc3C(=O)N(C)C2c2ccc(OC)cc2)CC1` (stereo not drawn): the AC50 under setting [1] was 7.31 µM [falling, partial curve, poor fit].

On to `Cc1c(C(=O)NNC(=S)Nc2ccc(S(N)(=O)=O)cc2)oc2ccccc12`, for which the half-maximal activity concentration (AC50) under setting [1] was 12.6 µM [falling, partial curve].

On to `O=C(Cn1cc(SCc2cccc(Cl)c2)c2ccccc21)N1CCOCC1`, for which the AC50 under setting [1] was 8.2 µM [falling, partial curve].

For the compound `CC(=O)c1ccc(N2CCN(C(=O)CN(C)S(=O)(=O)c3cnc[nH]3)CC2)cc1`, the AC50 under setting [1] is 5.62 µM [falling, single point].

On to `O=C(CSC(=S)N1CCOCC1)c1ccccc1`, for which, under setting [1], the AC50 was 13 µM [falling, partial curve].

As for `O=C(NC(=S)NCCc1ccc(Cl)cc1)c1ccco1`, the AC50 under setting [1] is 1.84 µM [rising, partial curve].

With `COc1ccc(OC)c(CCNC(=O)CCCC(=O)n2ncc3cc(C)ccc32)c1`, the AC50 under setting [1] is 0.891 µM [rising, full curve, poor fit].

On to `COc1cccc(C2Oc3ccccc3C3CC(c4cccs4)=NN32)c1` (stereo not drawn), for which, under setting [1], the AC50 was 20 µM [falling, single point].

`N#CC(c1nc2ccccc2nc1N1CCCC1)S(=O)(=O)c1ccccc1` (stereo not drawn): under setting [1], the AC50 was 22.4 µM [falling, single point].

`CCOC(=O)Cc1csc(NC(=O)COc2c(C)cccc2C)n1`: the AC50 under setting [1] is 3.98 µM [rising, partial curve, poor fit].

`CC(C)CC(=O)Nc1ccc(C(=O)CN2CCN(c3ccc(O)cc3)CC2)cc1`: the AC50 under setting [1] was 35.5 µM [falling, partial curve, poor fit].

Turning to `CCOc1ccc(C(=O)CSc2nnc(N)s2)cc1`, the AC50 under setting [1] was 35.5 µM [rising, single point].

As for `N=C1S/C(=C\c2cccc3ccccc23)C(=O)N1c1ccc(F)cc1`, the AC50 under setting [1] is 1.3 µM [falling, full curve].

Consider `Cc1ccc(C(=O)N2CCCC(C(F)(F)F)C2)cc1S(=O)(=O)N1CCOCC1` (stereo not drawn), for which, under setting [1], the AC50 is 0.146 µM [rising, full curve, poor fit].

As for `O=C(CNC(=O)c1ccccc1Cl)N/N=C/C=C/c1ccccc1`, the AC50 under setting [1] was 29.1 µM [rising, single point].

Consider `COc1ccc(-n2c(C)cc(/C=N/Nc3nc(N4CCOCC4)nc(N4CCOCC4)n3)c2C)cc1`, for which, under setting [1], the AC50 is 0.092 µM [rising, partial curve, poor fit].

In the case of `CCCNC(=O)c1cccc(COCC(F)(F)C(F)F)c1`, under setting [1], the AC50 is 5.8 µM [rising, partial curve, poor fit].

For `Cc1ccc(C(=O)CC2(O)C(=O)N(CCc3ccccc3)c3ccc(Br)cc32)o1` (stereo not drawn), the AC50 under setting [1] is 11.6 µM [falling, single point].

As for `CCC(=O)NC1=C(Cl)C(=O)C(NC(=O)CC)=C(Cl)C1=O`, the AC50 by setting is: under setting [1], 12.6 µM [falling, partial curve, poor fit]; under setting [2], 35.5 µM [rising, partial curve, poor fit].

Regarding `N#Cc1c(N)oc(-c2ccccc2)c1-c1ccccc1`, under setting [1], the AC50 was 11.2 µM [falling, partial curve, poor fit].

Consider `COc1ccc(NC(=O)c2cccc(N3C(=O)C4CC=C(C)CC4C3=O)c2)c(OC)c1` (stereo not drawn), for which the AC50 under setting [1] was 12.6 µM [falling, single point].

With `CCCOc1ccccc1OCC(=O)Nc1ccc(S(=O)(=O)N2CCCCC2)cc1`, the AC50 under setting [1] was 29.1 µM [falling, single point].

In the case of `COc1cc(NC(=O)c2ccco2)c(C(=O)OCC(=O)Nc2ncc(Cl)cc2Cl)cc1OC`, the AC50 under setting [1] is 0.116 µM [falling, full curve, poor fit].

With `Cc1ccccc1NC(=O)C1c2cccc[n+]2CC(=O)N1c1c(C)cccc1C` (stereo not drawn), the AC50 under setting [1] was 0.112 µM [falling, full curve, poor fit].

As to `CC(=O)c1cnc(N2CCCCC2)nc1C`, the AC50 under setting [1] is 0.731 µM [rising, full curve, poor fit].

Consider `Cc1ccc2nc(NC(=O)c3ccccn3)sc2c1`, for which the AC50 is 7.08 µM [falling, partial curve] under setting [1] and 10 µM [falling, partial curve] under setting [2].

On to `COc1ccc(CCNc2oc(-c3ccc(OC)c(OC)c3)nc2C#N)cc1`, for which, under setting [1], the AC50 was 3.16 µM [rising, single point].

Consider `CCc1ccc2[nH]c(=O)c(CN(CCCN3CCOCC3)C(=O)Nc3ccc(F)cc3)cc2c1`, for which the AC50 by setting is: under setting [1], 16.4 µM [falling, partial curve, poor fit]; under setting [2], 25.9 µM [rising, partial curve, poor fit].

For the compound `O=C(Nc1cc(Cl)cc(Cl)c1)c1ccc(F)c(S(=O)(=O)N2CCCCCC2)c1`, the AC50 under setting [2] is 1 µM [rising, full curve, poor fit].

With `CC(=O)Nc1ccc(NC(=O)Nc2cccc3ccccc23)cc1`, the AC50 under setting [1] was 12.6 µM [falling, partial curve, poor fit].

`CCOC(=O)c1c(C)[nH]c(NC(=O)N2CCOCC2)c1C`: under setting [1], the AC50 was 5.01 µM [rising, full curve, poor fit].

For the compound `CC(=O)Nc1ccc2c(c1)CCC2=O`, under setting [1], the AC50 is 29.1 µM [rising, single point].

As for `CCOC(=O)c1c(NC(=O)CSc2nnnn2-c2ccccc2)sc2c1CC(C)(C)NC2(C)C`, the AC50 under setting [1] was 11.2 µM [falling, single point].

For `COc1ccccc1/C=C/C=N/NC(=O)c1cnccn1`, the AC50 under setting [1] is 15.8 µM [falling, partial curve].

`O=C(CN1C(=O)NC2(CCCC2)C1=O)OCCOc1ccc(Cl)cc1Cl`: the AC50 under setting [1] is 29.1 µM [rising, partial curve, poor fit].

Consider `Cc1nc2c(ccc3nc(NC(=O)Cc4ccccc4)sc32)s1`, for which, under setting [1], the AC50 is 18.4 µM [falling, partial curve].

Regarding `COc1cccc(C(=O)N2c3ccccc3Sc3ccccc32)c1`, the AC50 under setting [1] was 18.4 µM [falling, single point].

Turning to `CCCCN(C)C(=S)Nc1ccsc1C(=O)OC`, the AC50 under setting [1] is 2.82 µM [rising, full curve, poor fit].

`Cc1cccc(OCC(=O)NNC(=O)c2ccc([N+](=O)[O-])cc2)c1`: the AC50 under setting [1] was 0.1 µM [falling, full curve, poor fit].

`CCNc1nc(N)nc(Oc2ccc(OCCOc3ccccc3)nn2)n1`: under setting [1], the AC50 was 29.1 µM [falling, single point].

For `C=CCNC(=O)/C(C#N)=C/c1c(N2CCCCCC2)nc2ccccn2c1=O`, under setting [1], the AC50 is 35.5 µM [falling, single point].

Turning to `C[C@]12c3[nH]c4ccc(Cl)cc4c3CCN1C(=O)[C@@H](CC(=O)NCCc1ccccn1)C[C@@H]2C(=O)N1CCOCC1`, the AC50 was 7.31 µM [rising, partial curve, poor fit] under setting [1] and 9.2 µM [falling, partial curve, poor fit] under setting [2].
